Data as given in PubChem BioAssay AID504786 (Drosophila RNAi Screening Center, 2011).

Test: 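Positive regulators of HIF-driven reporter output in Drosophila cells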 (primary screen)
Cell system: Drosophila S2 cells with a stable HIF luciferase reporter
Reagent: long dsRNA against Drosophila genes, about 0.2 µg dsRNA per well of a 384-well plate
Timing: three days of knock-down, then 20 h of DFO before reading
Conditions: desferrioxamine (DFO) at 100 µM, an iron chelator that mimics hypoxia, for 20 h
Read-out: 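Firefly luciferase driven by the mouse ldh-a hypoxia-response element, measured after 20 h of 100 µM DFO; z-scores per plate, higher means more signal lost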
Reading the numbers: z-score: higher = stronger loss of HIF reporter signal
In all, the deposit lists about 21,000 reagents; this is an unselected part of those with a known target gene and a result. 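Primary screen; positive scores mean lost reporter signal, so the sign may be inverted from the usual convention.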

CG6398 [DRSC19992] — z-score, replicate 1 = -0.2; z-score, replicate 2 = -0.2
Mur11Da (Mucin related 11Da) [DRSC18960] — z-score, replicate 1 = -0.2; z-score, replicate 2 = -0.3
CG17672 [DRSC09230] — z-score, replicate 1 = 2.2; z-score, replicate 2 = 2.4
CG17672 [DRSC10278] — z-score, replicate 1 = -0.1; z-score, replicate 2 = -0.2
CG2790 [DRSC04045] — z-score, replicate 1 = -0.1; z-score, replicate 2 = -0.1

Continued (2 carried over from the part before).
CG17672 [DRSC10278] — z-score, replicate 1 = -0.1; z-score, replicate 2 = -0.2
CG2790 [DRSC04045] — z-score, replicate 1 = -0.1; z-score, replicate 2 = -0.1
Ir7b (Ionotropic receptor 7b) [DRSC18009] — z-score, replicate 1 = 0; z-score, replicate 2 = 0.5
laf (labial associated factor) [DRSC12246] — z-score, replicate 1 = -0.2; z-score, replicate 2 = 0.1
l(3)72Dr (lethal (3) 72Dr) [DRSC10478] — z-score, replicate 1 = -0.3; z-score, replicate 2 = -0.4
Cpr64Ab (Cuticular protein 64Ab) [DRSC08461] — z-score, replicate 1 = -0.4; z-score, replicate 2 = -0.2
Dop1R1 (Dopamine 1-like receptor 1) [DRSC13021] — z-score, replicate 1 = -0.4; z-score, replicate 2 = -0.2
Dop1R1 (Dopamine 1-like receptor 1) [DRSC16652] — z-score, replicate 1 = -0.4; z-score, replicate 2 = -0.8
CG32459 [DRSC11852] — z-score, replicate 1 = -0.4; z-score, replicate 2 = -0.3
Cdlc2 (Cytoplasmic dynein light chain 2) [DRSC00743] — z-score, replicate 1 = 0.6; z-score, replicate 2 = 0.7
CG9114 [DRSC20155] — z-score, replicate 1 = -0.3; z-score, replicate 2 = -0.9
CG10725 [DRSC09788] — z-score, replicate 1 = -0.1; z-score, replicate 2 = 0.6
Tbcb (Tubulin-binding cofactor B) [DRSC06067] — z-score, replicate 1 = -0.5; z-score, replicate 2 = -1.1
